Among the data in US20170369571A1 (AbbVie / Abbott, published 2017) are binding values, retold here.

The chains behind the UniProt entries cited, without tags or fusion partners. Where a name states a change or a piece, a line headed by the entry shows the natural chain unless it says otherwise.
UniProt Q53EL9: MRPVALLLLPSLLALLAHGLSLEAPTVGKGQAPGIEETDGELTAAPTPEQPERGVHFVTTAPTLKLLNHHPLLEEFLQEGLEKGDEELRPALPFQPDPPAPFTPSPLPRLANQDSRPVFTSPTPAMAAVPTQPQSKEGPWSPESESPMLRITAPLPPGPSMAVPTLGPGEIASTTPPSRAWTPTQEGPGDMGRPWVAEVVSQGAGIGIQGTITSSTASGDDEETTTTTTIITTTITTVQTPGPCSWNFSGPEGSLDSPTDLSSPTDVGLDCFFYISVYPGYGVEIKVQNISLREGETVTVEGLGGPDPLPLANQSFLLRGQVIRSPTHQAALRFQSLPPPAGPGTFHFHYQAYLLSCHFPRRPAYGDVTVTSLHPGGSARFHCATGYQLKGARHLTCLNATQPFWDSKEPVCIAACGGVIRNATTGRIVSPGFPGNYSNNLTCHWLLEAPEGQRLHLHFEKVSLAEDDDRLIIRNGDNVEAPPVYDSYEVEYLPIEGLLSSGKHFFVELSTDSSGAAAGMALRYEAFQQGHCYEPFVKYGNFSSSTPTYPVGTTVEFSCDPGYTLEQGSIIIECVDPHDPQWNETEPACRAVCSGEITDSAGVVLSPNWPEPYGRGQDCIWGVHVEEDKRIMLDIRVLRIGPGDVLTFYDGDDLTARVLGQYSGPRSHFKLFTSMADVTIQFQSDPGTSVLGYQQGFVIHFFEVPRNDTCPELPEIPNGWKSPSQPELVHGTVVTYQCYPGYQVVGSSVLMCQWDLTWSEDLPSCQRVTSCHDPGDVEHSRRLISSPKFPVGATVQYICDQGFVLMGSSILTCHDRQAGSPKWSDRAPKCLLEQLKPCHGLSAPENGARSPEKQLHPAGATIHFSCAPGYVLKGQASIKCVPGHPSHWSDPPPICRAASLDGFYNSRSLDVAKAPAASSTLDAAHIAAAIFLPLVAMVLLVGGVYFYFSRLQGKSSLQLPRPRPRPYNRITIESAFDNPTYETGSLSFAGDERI
UniProt Q7TSK2: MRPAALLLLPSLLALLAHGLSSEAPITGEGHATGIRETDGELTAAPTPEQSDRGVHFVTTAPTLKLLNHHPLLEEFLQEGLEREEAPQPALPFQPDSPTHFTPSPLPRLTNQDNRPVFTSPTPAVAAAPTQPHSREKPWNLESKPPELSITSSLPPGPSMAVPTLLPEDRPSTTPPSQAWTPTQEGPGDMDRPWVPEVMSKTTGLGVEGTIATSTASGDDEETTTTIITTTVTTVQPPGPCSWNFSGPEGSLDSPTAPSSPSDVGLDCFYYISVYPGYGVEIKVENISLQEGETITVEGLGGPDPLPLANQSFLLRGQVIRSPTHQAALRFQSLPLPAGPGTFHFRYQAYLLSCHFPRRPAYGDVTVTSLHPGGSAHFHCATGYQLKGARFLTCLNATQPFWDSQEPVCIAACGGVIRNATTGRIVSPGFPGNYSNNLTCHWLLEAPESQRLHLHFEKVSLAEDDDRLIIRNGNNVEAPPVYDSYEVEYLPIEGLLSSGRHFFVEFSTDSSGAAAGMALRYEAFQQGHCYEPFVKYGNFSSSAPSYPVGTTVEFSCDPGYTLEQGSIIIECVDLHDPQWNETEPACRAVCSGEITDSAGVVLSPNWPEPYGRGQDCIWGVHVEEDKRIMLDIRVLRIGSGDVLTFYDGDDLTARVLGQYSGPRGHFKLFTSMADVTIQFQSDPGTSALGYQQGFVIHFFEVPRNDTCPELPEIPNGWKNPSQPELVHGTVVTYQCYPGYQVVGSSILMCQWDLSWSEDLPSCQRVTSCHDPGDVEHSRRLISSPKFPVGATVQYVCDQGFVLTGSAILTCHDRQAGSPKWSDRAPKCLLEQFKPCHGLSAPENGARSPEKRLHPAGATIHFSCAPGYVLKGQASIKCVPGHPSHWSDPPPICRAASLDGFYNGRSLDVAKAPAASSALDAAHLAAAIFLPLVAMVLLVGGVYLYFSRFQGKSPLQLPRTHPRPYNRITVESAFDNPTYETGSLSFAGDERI

Assay [1] has as its target recombinant human SEZ6 ECD with 9-Histidine tag (human) (UniProt Q53EL9). In words: assay and antigen not given.
The target is the same in assay [2]. In words: SPR, Biacore 2000; antigen not named in the paragraph.
In assay [3] the target is rat SEZ6 on RIN-m5F cells (rat). In words: flow cytometry on RIN-m5F cells, 5 ug/mL antibody.
Assay [4] deals with cynomolgus SEZ6 extracellular domain displayed on yeast (cynomolgus). In words: flow cytometry on yeast displaying cynomolgus SEZ6 ECD, 5 ug/mL antibody. In general terms: A flow cytometer gives signals particle by particle.
Assay [5] deals with human SEZ6 overexpressed on HEK-293T cells (human) (UniProt Q53EL9). The assay can be described thus: immunohistochemistry, formalin fixed paraffin embedded cell pellets.
In assay [6] the target is mouse SEZ6 on Neuro2a cells (mouse) (UniProt Q7TSK2). In words: flow cytometry on Neuro2a cells, 5 ug/mL antibody.

Changes are numbered by the printed parent chain. Results are given in words; binding and its absence hold for the method and conditions named. Some binding calls cover weakened binding; strength is not graded here.

B1: hSC17.34 (antibody, human IgG1, V domains shown)
VH: QVQLVQSGAEVKKPGASVKVSCKASGYTFTDYNMDWVRQAPGQRLEWIGYIYPDNGGAGYNQKFKGRVTITVDTSASTAYMELSSLRSEDTAVYYCSRSITTAWFAYWGQGTLVTVSS
VL: DIQMTQSPSSLSASVGDRVTITCKASQDINSYLSWFQQKPGKAPKSLIYRANRLVDGVPSRFSGSGSGTDYTLTISSLQPEDFATYYCLQYDEFPPTFGQGTKLEIK
For B1, the binding entry in assay [1] and in assay [2] was “binds” each time.

B2: SC17.17 (antibody, V domains shown)
VH: EVQLQQSGPEVMKPGASVKMSCKASGYTFTDYNMHWVKQNQGKSLEWIGEINPNIGGTGYNQKFKGKATLTVHKSSSTAYMELRSLTSEDSAVYYCARTYSYYSYEFAYWGQGTLVTVSA
VL: QIVLTQSPAIMSASPGEKVTMTCSASSSVSYMHWYQQKSGTSPKRWIYDTSKLPSGVPARFSGSGSGTSYSLTISSMEAEDAATYYCQQWSSTPPTFGAGTKLELK
As to B2, the binding result in assay [3] and in assay [4] was “binds” each time.

B3: SC17.140 (antibody, V domains shown)
VH: EVQLQQSGPELMKPGASVKMSCKASGYTFTDYNMHWVKQNQGKSLEWIGEINPNTGGTGYNQKFKGKATLTVDKFSSTAFIELRSLTSEDSAIYYCTRGGYDHYWYFDVWGAGTTVTVSS
VL: B2 VL with P54A, A99S, L105I
In the case of B3, the binding result in assay [5] is “binds”.

B4: hSC17.46 (antibody, human IgG1, V domains shown)
VH: QVQLVQSGAEVKKPGASVKVSCKASGYTFTSYWINWVRQAPGQGLEWIGNIFPDTTTTNYNEKFKGRVTLTRDTSISTAYMELSRLRSDDTAVYYCAREYYDGTYDAMDYWGQGTLVTVSS
VL: AIQMTQSPSSLSASVGDRVTITCKASQSVNNDVAWYQQKPGKAPKLLIYYASNRYTGVPSRFSGSGSGTDFTLTISSLQPEDFATYFCQQDYSSPRTFGQGTKLEIK
Regarding B4, the binding result in assay [1] and in assay [2] was “binds” in each case.

B5: SC17.34 (antibody, V domains shown)
VH: EVQLQQSGPELVKPGSSVKISCKASGYTFTDYNMDWVKQSHGKRLEWIGYIYPDNGGAGYNQKFKGKATLTVDKSSSTAYMELRSLTSEDSAVYYCSRSITTAWFAYWGQGTLVTVSA
VL: DIKMTQSPSSMYASLGERVTITCKASQDINSYLSWFQQKPGKSPKTLIYRANRLVDGVPSRFSGSGSGQDYSLTISSLEYEDMGIYYCLQYDEFPPTFGGGTKLEIK
As for B5, the binding entry in assay [3] and in assay [4] was “binds” in each case.

B6: SC17.24 (antibody, V domains shown)
VH: QVQLQQSDAELVKPGASVKISCKVSGYTFTDHTIHWMKQRPEQGLEWIGYIYPRDGSTKYNEEFKGKATLTADKSSSTAYMQLNSLTSEDSAVYFCARSYSNYFDYWGQGTTLTVSS
VL: DIVMSQSPSSLAVSVGEKVTMSCKSSQSLLYSSNQKSYLAWYQQKPGQSPKLLIYWASTRESGVPDRFTGSGSGTDFTLTISSVQAEDLAVYYCKQSYNLRTFGGGTKLEIK
Consider B6, for which the binding result in assay [6] and in assay [4] was “binds” in each case.

B7: hSC17.28 (antibody, human IgG1, V domains shown)
VH: QVQLVQSGAEVKKPGASVKVSCKASGYTFTRSYIHWVRQAPGQGLEWMGYISSGSGGTTYNQKFKGRVTSTRDTSISTAYMELSRLRSDDTAVYYCARGGVRYFDVWGQGTTVTVSS
VL: EIVLTQSPDFQSVTPKEKVTITCRASQSIGTSIHWYQQKPDQSPKLLIKYASESISGVPSRFSGSGSGTDFTLTINSLEAEDAATYYCQQSNSWPLTFGQGTKLEIK
For B7, the binding entry in assay [1] and in assay [2] was “binds” in each case.

B8: hSC17.151 (antibody, human IgG1, V domains shown)
VH: QVQLVQSGAEVKKPGASVKVSCKASGYTFTSYWMHWVRQAPGQGLEWMGAIYPGKSDTTYNQKFKGRVTMTRDTSTSTVYMELSSLRSEDTAVYYCARSGKGYFAYWGQGTLVTVSS
VL: EIVLTQSPATLSLSPGERATLSCRASESVDSYGNSFMHWYQQKPGQAPRLLIYRASNLESGIPARFSGSGSGTDFTLTISSLEPEDFAVYYCQQSHEDPYTFGQGTKLEIK
With B8, the binding entry in assay [1] is reported as “binds”.

B9: hSC17.16 (antibody, human IgG1, V domains shown)
VH: QVQLVQSGAEVKKPGASVKVSCKASGYTFTDYNMYWVRQAPGQGLEWMGEINPNNGGTAYNQKFRGKVTMTRDTSISTAYMELSRLRSDDTAVYYCARYDKGFDYWGQGTTVTVSS
VL: DIQMTQSPSSLSASVGDRVTITCRASANINSNLVWYQQKPGKAPKLLIYAATNLADGVPSRFSGSGSGTDFTLTISSLQPEDFATYYCQHFWGTPRTFGGGTKLEIK
B9: the binding entry in assay [1] and in assay [2] was “binds” each time.

B10: hSC17.156 (antibody, human IgG1, V domains shown)
VH: QVTLKESGPVLVKPTETLTLTCTVSGFSLSTSGMGVSWIRQPPGKALEWLAHIFWDDDKWYNPSLKSRLTISKDTSKSQVVLTMTNMDPVDTATYYCATFYGLYFAYWGQGTLVTVSS
VL: DIVMTQTPLSLPVTPGEPASISCRSSQSIVHSNGNTYLEWYLQKPGQSPQLLIYKVSNRFSGVPDRFSGSGSGTDFTLKISRVEAEDVGVYYCFQGSHVPPTFGGGTKLEIK
Take B10: the binding result in assay [1] is “binds”.

B11: hSC17.161 (antibody, human IgG1, V domains shown)
VH: QVQLVQSGAEVKKPGASVKVSCKASGFTFSDAWMDWVRQAPGQRLEWMGEIRSKPNNHATYYAESVKGRVTITRDTSASTAYMELSSLRSEDTAVYYCARTGTSYWGQGTLVTVSS
VL: DIVMTQSPDSLAVSLGERATINCESSQSLLYNSNQKNYLAWYQQKPGQPPKLLIYWASTRESGVPDRFSGSGSGTDFTLTISSLQAEDVAVYYCQQYFNYPLTFGQGTKLEIKR
Take B11: in assay [1], the binding entry was “binds”.

B12: hSC17.161vH1 (antibody, V domains shown)
VH: EVQLVESGGGLVQPGGSLRLSCAASGFTFSDAWMDWVRQAPGKGLEWVGEIRSKPNNHATYYAESVKGRFTISRDDSKNSLYLQMNSLKTEDTAVYYCARTGTSYWGQGTLVTVSS
VL: B11 VL
On to B12, for which the binding entry in assay [1] is reported as “binds”.

B13: hSC17.200 (antibody, human IgG1, V domains shown)
VH: EVQLVQSGAEVKKPGESLKISCKGSGYSFTSSWINWVRQMPGKGLEWMGRIYPGEGDTNYSGNFEGQVTISADKSISTAYLQWSSLKASDTAMYYCTRGLVMDYWGQGTLVTVS
VL: EIVLTQSPATLSLSPGERATLSCRASQSVDYNGISYMHWYQQKPGQAPRLLIYAASNVQSGIPARFSGSGSGTDFTLTISSLEPEDFAVYYCQQSIEDPPTFGGGTKVEIK
In the case of B13, the binding entry in assay [1] is listed as “binds”.

B14: hSC17.200vL1 (antibody, V domains shown)
VH: B13 VH
VL: B13 VL with N32D
Regarding B14, the binding entry in assay [1] is recorded as “binds”.

B15: hSC17.17 (antibody, human IgG1, V domains shown)
VH: QVQLVQSGAEVKKPGASVKVSCKASGYTFTDYNMHWVRQAPGQGLEWMGEINPNIGGTGYNQKFKGRVTMTRDTSISTAYMELSRLRSDDTAVYYCARTYSYYSYEFAYWGQGTLVTVSS
VL: EIVLTQSPATLSLSPGERATLSCSASSSVSYMHWYQQKPGQAPRLLIYDTSKLPSGIPARFSGSGSGTDFTLTISSLEPEDFAVYYCQQWSSTPPTFGQGTKLEIK
For the molecule B15, the binding result in assay [1] and in assay [2] was “binds” throughout.
